The compounds below were run on NMDA receptor (assay: [3H]MK-801 binding assay, NMDA receptors in guinea pig brain membranes). Details: [3H]MK-801 competition, guinea pig brain membrane preparation.
Procedure: Hartley guinea pigs were sacrificed, and their brains were quickly removed and weighed. The brains then were homogenized in 50 mM Tris HCl buffer, pH 7.7, using a Polytron homogenizer. The homogenate was centrifuged at 40,000×g for 15 min, rehomogenized, and centrifuged again. The final pellet was resuspended in Tris-HCl, pH 7.7, at a final concentration of 6.67 mg original wet weight of tissue/ml. […] The samples were then filtered through glass fiber filters on a Tomtec cell harvester. The filters were washed 3 times with 3 ml of cold buffer. Filters were dried overnight and counted next day on a Wallac Betaplate Reader.
The binding experiments were conducted as follows. […] For each compound, graphs were prepared containing individual competition curves obtained for that compound. IC50 values and Hill coefficients were calculated using the program Prism. Ki values were calculated using the Chang Prusoff transformation: Ki═IC50/(1+L/Kd)
where L is radioligand concentration and Kd is the binding affinity of the radioligand, as determined previously by saturation analysis. […] In each experiment, one standard compound was simultaneously run on each 96 well plate.
`O=C(O)C12CC3CC4C1CC1CC2C(C3)C4(C(=O)O)C1` [MDT-19, 1,6-diamantane dicarboxylic acid] was tested, and the “Hill Slope” value was 0.81 ± 0.23.
With `NC12CC3CC4C5CC(CC41)CC2C5C3` [MDT-1, 1-aminodiamantane] the “Hill Slope” value was 1.40 ± 0.24.
With `O=C(O)C12CC3CC4C5CC(CC41)CC2C5C3` [MDT-17, 1-diamantane carboxylic acid] the “Hill Slope” value was 1.09 ± 0.24.
With `OC12CC3CC4C5CC(CC41)CC2C5C3` [MDT-10, 1-hydroxydiamantane] the “Hill Slope” value was 0.54 ± 0.07.
With `CC12CC3CC4C1CC1CC2C(N)(C3)C4(C)C1` (centres unmarked) [MDT-23, 1,6-dimethyl-2-aminodiamantane] the “Hill Slope” value was 0.83 ± 0.00.
With `OC12CC3CC4C1CC1CC2C(C3)C4(O)C1` [MDT-12, 1,6-dihydroxydiamantane] the “Hill Slope” value was 0.53 ± 0.13.
With `CC12CC3CC4C1CC1CC4[C@](N)(C3)C2C1` [MDT-22, 1-methyl-7-aminodiamantane] the “Hill Slope” value was 0.47 ± 0.03.
For `CC12CC3CC(C)(C1)CC(N)(C3)C2` [Memantine, 1-amino-3,5-dimethyladamantane, reference compound], the “Hill Slope” value was 0.95 ± 0.17.

Same assay, conditions: [3H]MK-801 competition, guinea pig brain membranes
In the case of `CN[C@H](CC(=O)O)C(=O)O` [NMDA, N-methyl-D-aspartate, reference compound], the “Hill Slope (standard compounds)” value is reported as 0.80 ± 0.04 (n = 2).
In the case of `Cl.NC12CC3CC(CC(C3)C1)C2` [Amantadine, 1-aminoadamantane hydrochloride, reference compound], the “Hill Slope (standard compounds)” value is reported as 1.20 ± 0.45 (n = 2).
`CC12CC3CC(C)(C1)CC(N)(C3)C2` [Memantine, 1-amino-3,5-dimethyladamantane, reference compound] was tested, and the “Hill Slope (standard compounds)” value was 0.95 ± 0.17 (n = 3).
